Consider 26 compounds from the supplement of paper PMC10735217.

The structures appear in SMILES notation. Some of the results follow. Repeats in this data set agree poorly, so a single value says little.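 The human kidney-derived cells carry a stably integrated construct of eight TEAD-binding elements driving luciferase, read by luminescence in a drug-repurposing library screen. A compound counts as a hit when its signal is more than five robust Z scores above the plate mean.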

In this test the test system is HEK293A TEAD-LUC reporter. The test can be described thus: TEAD-luciferase reporter activity (YAP activation), robust Z score vs plate; higher = stronger YAP/TEAD activation. The following applies: 24 h. Background: A reporter such as luciferase makes a cellular process visible.

Consider `NS(=O)(=O)NCc1csc2ccccc12`, for which the TEAD-luciferase reporter activity is inactive: -0.855 (compound concentration: 200 nM), inactive: 0.266 (compound concentration: 2 uM) and inactive: 0.56 (compound concentration: 10 uM).

With `COc1ccc(Cc2ncc(CN3CCN(c4ccccc4OC)CC3)c3cc(OC)c(OC)cc23)cc1OC` [Elziverine], the TEAD-luciferase reporter activity is inactive: -0.455 (compound concentration: 200 nM), inactive: -1.15 (compound concentration: 2 uM) and inactive: -0.821 (compound concentration: 10 uM).

Regarding `CCCC(=O)N1Cc2ccccc2CC2(CCCN2Cc2ccc(OC)cc2)C1` (configuration not stated), the TEAD-luciferase reporter activity by setting is: (compound concentration: 200 nM) inactive: 1.18; (compound concentration: 10 uM) inactive: 0.104.

In the case of `CC1CNc2c(cccc2S(=O)(=O)N[C@@H](CCCNC(=N)N)C(=O)N2CC[C@@H](C)C[C@@H]2C(=O)O)C1` (some centres not stated) [argatroban], the TEAD-luciferase reporter activity is inactive: 0.85 (compound concentration: 200 nM), inactive: -1.8 (compound concentration: 2 uM) and inactive: -0.799 (compound concentration: 10 uM).

For `Cc1cc(C(=O)NCCc2ccc(S(=O)(=O)NC(=O)NN3CCCCCC3)cc2)no1` [Glisoxepide], the TEAD-luciferase reporter activity is, setting by setting: (compound concentration: 200 nM) inactive: -1.25; (compound concentration: 2 uM) inactive: 0.632; (compound concentration: 10 uM) inactive: -1.83.

With `Oc1ccc2c(c1)CC[C@H](c1ccccc1)[C@@H]2c1ccc(OCCN2CCCC2)cc1` [Lasofoxifene], the TEAD-luciferase reporter activity is inactive: -1.95 (compound concentration: 200 nM), inactive: -0.509 (compound concentration: 2 uM) and inactive: -1.36 (compound concentration: 10 uM).

Consider `CC(C)Oc1ccc(-c2nn([C@@H](C)c3oc4ccc(F)cc4c(=O)c3-c3cccc(F)c3)c3ncnc(N)c23)cc1F`, for which the TEAD-luciferase reporter activity is inactive: 0.224 (compound concentration: 200 nM), inactive: -1.31 (compound concentration: 2 uM) and inactive: 1.74 (compound concentration: 10 uM).

`CC(=O)O[C@H]1C[C@@H]2C(COC(=O)CC(C)C)=CO[C@@H](OC(=O)CC(C)C)[C@@H]2[C@@]12CO2`: the TEAD-luciferase reporter activity is inactive: -1.41 (compound concentration: 200 nM), inactive: 4.87 (compound concentration: 2 uM) and inactive: 0.372 (compound concentration: 10 uM).

In the case of `CCOC(=O)c1ccccc1NC(=O)c1ccc(NC(=O)CC)cc1`, the TEAD-luciferase reporter activity (compound concentration: 200 nM) is inactive: -0.55, the TEAD-luciferase reporter activity (compound concentration: 2 uM) was inactive: 2.25 and the TEAD-luciferase reporter activity (compound concentration: 10 uM) was inactive: -0.477.

With `C=CCN1C(=O)OC(C)C1=O` (configuration not stated), the TEAD-luciferase reporter activity was inactive: 1.27 (compound concentration: 200 nM), inactive: -1.1 (compound concentration: 2 uM) and inactive: -0.0864 (compound concentration: 10 uM).

Take `CN(C)CC(O)COc1ccccc1C1CC2CCC1C2` (configuration not stated): the TEAD-luciferase reporter activity (compound concentration: 200 nM) is inactive: 0.305, the TEAD-luciferase reporter activity (compound concentration: 2 uM) is inactive: -1.94 and the TEAD-luciferase reporter activity (compound concentration: 10 uM) was inactive: 0.207.

As for `CN(CCc1ccccc1)CCc1ccccc1`, the TEAD-luciferase reporter activity (compound concentration: 200 nM) was inactive: -0.39, the TEAD-luciferase reporter activity (compound concentration: 2 uM) was inactive: 2.12 and the TEAD-luciferase reporter activity (compound concentration: 10 uM) is inactive: 2.49.

Consider `NC(=O)[C@@H]1CCCN1`, for which the TEAD-luciferase reporter activity (compound concentration: 200 nM) was inactive: -0.445, the TEAD-luciferase reporter activity (compound concentration: 2 uM) was inactive: 2.25 and the TEAD-luciferase reporter activity (compound concentration: 10 uM) was inactive: -0.237.

`N[C@H]1CCN(S(=O)(=O)c2cccc3cnccc23)C1`: the TEAD-luciferase reporter activity is inactive: -0.472 (compound concentration: 200 nM), inactive: -0.432 (compound concentration: 2 uM) and inactive: -0.885 (compound concentration: 10 uM).

In the case of `NC(=O)Nc1cc(-c2cccc(F)c2)sc1C(=O)N[C@H]1CCCNC1`, the TEAD-luciferase reporter activity by setting is: (compound concentration: 200 nM) inactive: 2.44; (compound concentration: 2 uM) inactive: 0.905; (compound concentration: 10 uM) inactive: -1.87.

With `C[C@@H]1O[C@@H](OC[C@H]2O[C@@H](Oc3c(-c4ccc(OCCO)c(OCCO)c4)oc4cc(OCCO)cc(O)c4c3=O)[C@H](O)[C@@H](O)[C@@H]2O)[C@H](O)[C@H](O)[C@H]1O` [Factor P-Zyma], the TEAD-luciferase reporter activity is, setting by setting: (compound concentration: 200 nM) active: 5.09; (compound concentration: 2 uM) inactive: -0.751; (compound concentration: 10 uM) inactive: -1.86.

On to `CCN(CC)C(=O)C1CN2CCc3cc(OC)c(OC)cc3C2CC1OC(C)=O` (configuration not stated), for which the TEAD-luciferase reporter activity was inactive: -1.22 (compound concentration: 200 nM), inactive: -0.755 (compound concentration: 2 uM) and inactive: -1.03 (compound concentration: 10 uM).

As to `NC(=O)C(F)(F)C(O)(Cn1cncn1)c1ccc(F)cc1F` (configuration not stated), the TEAD-luciferase reporter activity runs as follows: (compound concentration: 200 nM) inactive: 3.62; (compound concentration: 2 uM) inactive: 0.254; (compound concentration: 10 uM) inactive: -0.67.

Regarding `Cc1cccc(C(=O)N2CCC(N3CCC(Cc4ccc(S(=O)(=O)c5cccc(Cl)c5)cc4)CC3)CC2)c1N`, the TEAD-luciferase reporter activity reads like this: (compound concentration: 200 nM) inactive: -0.671; (compound concentration: 2 uM) inactive: -1.11; (compound concentration: 10 uM) inactive: -1.3.

On to `CC(C)=CCOc1cc(NC(=S)c2ccccc2)ccc1Cl`, for which the TEAD-luciferase reporter activity runs as follows: (compound concentration: 200 nM) inactive: 0.338; (compound concentration: 2 uM) inactive: 3.27; (compound concentration: 10 uM) inactive: 3.15.

With `Cc1ccc(C(=O)N(CCCN)[C@@H](c2oc3cc(Cl)ccc3c(=O)c2Cc2ccccc2)C(C)C)cc1`, the TEAD-luciferase reporter activity was inactive: -0.553 (compound concentration: 200 nM), inactive: 1.17 (compound concentration: 2 uM) and inactive: -2.23 (compound concentration: 10 uM).

As for `Nc1ccc(C(=O)O)cc1`, the TEAD-luciferase reporter activity was inactive: 1.81 (compound concentration: 200 nM), inactive: -0.58 (compound concentration: 2 uM) and inactive: 0.344 (compound concentration: 10 uM).

Take `O=C(O)c1cnc(N2C[C@@H]3[C@H](C2)[C@H]3NCc2ccc3cc(F)ccc3n2)nc1`: the TEAD-luciferase reporter activity is inactive: -0.879 (compound concentration: 200 nM), inactive: -1.29 (compound concentration: 2 uM) and inactive: -0.698 (compound concentration: 10 uM).

Regarding `CC(=O)OCC(=O)[C@@]1(O)CC[C@H]2[C@@H]3CCC4=CC(=O)CC[C@]4(C)[C@@]3(F)[C@@H](O)C[C@@]21C` [dexamethasone acetate, Laboratoires CTRS], the TEAD-luciferase reporter activity is inactive: -0.146 (compound concentration: 200 nM) and inactive: 1.48 (compound concentration: 10 uM).

With `CC(=O)OCC(=O)[C@@]1(O)CC[C@H]2[C@@H]3CCC4=CC(=O)CC[C@]4(C)[C@@]3(F)[C@@H](O)C[C@@]21C` [Fludrocortisone acetate], the TEAD-luciferase reporter activity (compound concentration: 2 uM) is inactive: 0.714.

As to `CC(=O)OCC(=O)[C@@]1(O)CC[C@H]2[C@@H]3CCC4=CC(=O)CC[C@]4(C)[C@@]3(F)[C@@H](O)C[C@@]21C` [Fludrocortisone (acetate)], the TEAD-luciferase reporter activity (compound concentration: 2 uM) is inactive: -0.857.
